# Test results reported in the supplement of paper PMC10849652.
# The chains behind the UniProt entries cited, without tags or fusion partners. Where a name states a change or a piece, a line headed by the entry shows the natural chain unless it says otherwise.
# UniProt Q92828: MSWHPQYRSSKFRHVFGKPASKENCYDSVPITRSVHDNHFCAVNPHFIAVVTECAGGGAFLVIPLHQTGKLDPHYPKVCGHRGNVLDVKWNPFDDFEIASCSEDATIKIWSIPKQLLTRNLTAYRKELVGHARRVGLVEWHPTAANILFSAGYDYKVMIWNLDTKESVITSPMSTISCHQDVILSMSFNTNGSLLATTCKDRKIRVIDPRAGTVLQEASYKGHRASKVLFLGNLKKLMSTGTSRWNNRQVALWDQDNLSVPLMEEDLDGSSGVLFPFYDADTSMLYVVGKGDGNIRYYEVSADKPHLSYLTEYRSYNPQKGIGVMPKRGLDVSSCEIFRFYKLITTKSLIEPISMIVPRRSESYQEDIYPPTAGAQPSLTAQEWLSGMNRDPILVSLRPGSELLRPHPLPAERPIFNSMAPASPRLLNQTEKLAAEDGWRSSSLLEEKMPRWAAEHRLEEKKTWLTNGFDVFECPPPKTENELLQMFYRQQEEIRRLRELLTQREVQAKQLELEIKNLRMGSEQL
# UniProt O14810: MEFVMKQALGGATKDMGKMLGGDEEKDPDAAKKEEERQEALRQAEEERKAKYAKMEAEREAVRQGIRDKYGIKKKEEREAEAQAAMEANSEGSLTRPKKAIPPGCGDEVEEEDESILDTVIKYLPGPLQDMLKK
# UniProt Q9NRU3: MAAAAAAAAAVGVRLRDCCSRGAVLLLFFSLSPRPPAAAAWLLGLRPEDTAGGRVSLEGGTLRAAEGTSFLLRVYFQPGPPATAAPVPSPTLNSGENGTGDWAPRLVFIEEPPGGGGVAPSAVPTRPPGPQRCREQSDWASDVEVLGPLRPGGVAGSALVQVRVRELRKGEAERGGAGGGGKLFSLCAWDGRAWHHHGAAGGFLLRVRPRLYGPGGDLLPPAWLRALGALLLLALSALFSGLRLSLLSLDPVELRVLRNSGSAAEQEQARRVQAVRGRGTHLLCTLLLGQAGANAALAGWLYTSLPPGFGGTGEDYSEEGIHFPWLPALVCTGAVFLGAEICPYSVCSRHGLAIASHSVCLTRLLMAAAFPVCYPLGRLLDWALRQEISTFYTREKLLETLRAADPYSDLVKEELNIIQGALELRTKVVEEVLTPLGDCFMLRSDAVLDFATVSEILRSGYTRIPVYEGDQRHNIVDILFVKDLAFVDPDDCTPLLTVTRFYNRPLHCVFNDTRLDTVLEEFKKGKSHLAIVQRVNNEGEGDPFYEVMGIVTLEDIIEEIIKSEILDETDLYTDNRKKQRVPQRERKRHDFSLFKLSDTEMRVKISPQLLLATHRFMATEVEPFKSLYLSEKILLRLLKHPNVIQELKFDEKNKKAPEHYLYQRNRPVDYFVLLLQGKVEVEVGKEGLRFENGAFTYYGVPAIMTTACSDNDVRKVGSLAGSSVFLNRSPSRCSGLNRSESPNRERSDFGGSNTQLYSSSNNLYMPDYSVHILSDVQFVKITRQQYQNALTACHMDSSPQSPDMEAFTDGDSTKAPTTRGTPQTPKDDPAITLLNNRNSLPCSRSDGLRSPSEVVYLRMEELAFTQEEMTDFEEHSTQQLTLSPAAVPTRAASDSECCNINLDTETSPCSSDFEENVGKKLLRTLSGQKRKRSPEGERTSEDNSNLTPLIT
# UniProt Q9H9A5, whole entry, looked up: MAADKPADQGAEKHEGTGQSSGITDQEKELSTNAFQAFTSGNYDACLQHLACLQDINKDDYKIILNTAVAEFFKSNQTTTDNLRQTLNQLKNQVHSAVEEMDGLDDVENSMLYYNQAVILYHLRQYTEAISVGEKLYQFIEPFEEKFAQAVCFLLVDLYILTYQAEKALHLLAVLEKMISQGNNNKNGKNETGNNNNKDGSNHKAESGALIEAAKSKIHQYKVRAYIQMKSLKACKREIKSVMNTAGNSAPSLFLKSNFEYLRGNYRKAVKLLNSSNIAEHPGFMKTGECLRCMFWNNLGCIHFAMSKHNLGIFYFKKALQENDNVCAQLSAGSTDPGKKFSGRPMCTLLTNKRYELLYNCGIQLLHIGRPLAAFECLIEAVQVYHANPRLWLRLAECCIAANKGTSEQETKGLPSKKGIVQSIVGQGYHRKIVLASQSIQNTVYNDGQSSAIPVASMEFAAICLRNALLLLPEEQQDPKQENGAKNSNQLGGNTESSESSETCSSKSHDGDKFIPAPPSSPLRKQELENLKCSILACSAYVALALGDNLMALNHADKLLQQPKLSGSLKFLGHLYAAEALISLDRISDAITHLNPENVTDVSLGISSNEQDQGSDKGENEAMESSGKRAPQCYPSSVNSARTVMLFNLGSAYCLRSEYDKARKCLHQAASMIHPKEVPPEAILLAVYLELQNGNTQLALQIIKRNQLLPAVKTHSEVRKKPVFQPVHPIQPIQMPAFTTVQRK
# UniProt Q86VU5: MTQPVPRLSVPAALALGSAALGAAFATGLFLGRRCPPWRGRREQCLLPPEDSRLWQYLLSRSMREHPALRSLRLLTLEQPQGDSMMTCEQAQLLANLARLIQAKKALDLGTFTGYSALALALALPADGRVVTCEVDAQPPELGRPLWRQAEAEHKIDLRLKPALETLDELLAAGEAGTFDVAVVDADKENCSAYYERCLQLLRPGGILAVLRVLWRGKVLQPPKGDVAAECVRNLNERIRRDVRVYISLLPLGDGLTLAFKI
# UniProt P12111: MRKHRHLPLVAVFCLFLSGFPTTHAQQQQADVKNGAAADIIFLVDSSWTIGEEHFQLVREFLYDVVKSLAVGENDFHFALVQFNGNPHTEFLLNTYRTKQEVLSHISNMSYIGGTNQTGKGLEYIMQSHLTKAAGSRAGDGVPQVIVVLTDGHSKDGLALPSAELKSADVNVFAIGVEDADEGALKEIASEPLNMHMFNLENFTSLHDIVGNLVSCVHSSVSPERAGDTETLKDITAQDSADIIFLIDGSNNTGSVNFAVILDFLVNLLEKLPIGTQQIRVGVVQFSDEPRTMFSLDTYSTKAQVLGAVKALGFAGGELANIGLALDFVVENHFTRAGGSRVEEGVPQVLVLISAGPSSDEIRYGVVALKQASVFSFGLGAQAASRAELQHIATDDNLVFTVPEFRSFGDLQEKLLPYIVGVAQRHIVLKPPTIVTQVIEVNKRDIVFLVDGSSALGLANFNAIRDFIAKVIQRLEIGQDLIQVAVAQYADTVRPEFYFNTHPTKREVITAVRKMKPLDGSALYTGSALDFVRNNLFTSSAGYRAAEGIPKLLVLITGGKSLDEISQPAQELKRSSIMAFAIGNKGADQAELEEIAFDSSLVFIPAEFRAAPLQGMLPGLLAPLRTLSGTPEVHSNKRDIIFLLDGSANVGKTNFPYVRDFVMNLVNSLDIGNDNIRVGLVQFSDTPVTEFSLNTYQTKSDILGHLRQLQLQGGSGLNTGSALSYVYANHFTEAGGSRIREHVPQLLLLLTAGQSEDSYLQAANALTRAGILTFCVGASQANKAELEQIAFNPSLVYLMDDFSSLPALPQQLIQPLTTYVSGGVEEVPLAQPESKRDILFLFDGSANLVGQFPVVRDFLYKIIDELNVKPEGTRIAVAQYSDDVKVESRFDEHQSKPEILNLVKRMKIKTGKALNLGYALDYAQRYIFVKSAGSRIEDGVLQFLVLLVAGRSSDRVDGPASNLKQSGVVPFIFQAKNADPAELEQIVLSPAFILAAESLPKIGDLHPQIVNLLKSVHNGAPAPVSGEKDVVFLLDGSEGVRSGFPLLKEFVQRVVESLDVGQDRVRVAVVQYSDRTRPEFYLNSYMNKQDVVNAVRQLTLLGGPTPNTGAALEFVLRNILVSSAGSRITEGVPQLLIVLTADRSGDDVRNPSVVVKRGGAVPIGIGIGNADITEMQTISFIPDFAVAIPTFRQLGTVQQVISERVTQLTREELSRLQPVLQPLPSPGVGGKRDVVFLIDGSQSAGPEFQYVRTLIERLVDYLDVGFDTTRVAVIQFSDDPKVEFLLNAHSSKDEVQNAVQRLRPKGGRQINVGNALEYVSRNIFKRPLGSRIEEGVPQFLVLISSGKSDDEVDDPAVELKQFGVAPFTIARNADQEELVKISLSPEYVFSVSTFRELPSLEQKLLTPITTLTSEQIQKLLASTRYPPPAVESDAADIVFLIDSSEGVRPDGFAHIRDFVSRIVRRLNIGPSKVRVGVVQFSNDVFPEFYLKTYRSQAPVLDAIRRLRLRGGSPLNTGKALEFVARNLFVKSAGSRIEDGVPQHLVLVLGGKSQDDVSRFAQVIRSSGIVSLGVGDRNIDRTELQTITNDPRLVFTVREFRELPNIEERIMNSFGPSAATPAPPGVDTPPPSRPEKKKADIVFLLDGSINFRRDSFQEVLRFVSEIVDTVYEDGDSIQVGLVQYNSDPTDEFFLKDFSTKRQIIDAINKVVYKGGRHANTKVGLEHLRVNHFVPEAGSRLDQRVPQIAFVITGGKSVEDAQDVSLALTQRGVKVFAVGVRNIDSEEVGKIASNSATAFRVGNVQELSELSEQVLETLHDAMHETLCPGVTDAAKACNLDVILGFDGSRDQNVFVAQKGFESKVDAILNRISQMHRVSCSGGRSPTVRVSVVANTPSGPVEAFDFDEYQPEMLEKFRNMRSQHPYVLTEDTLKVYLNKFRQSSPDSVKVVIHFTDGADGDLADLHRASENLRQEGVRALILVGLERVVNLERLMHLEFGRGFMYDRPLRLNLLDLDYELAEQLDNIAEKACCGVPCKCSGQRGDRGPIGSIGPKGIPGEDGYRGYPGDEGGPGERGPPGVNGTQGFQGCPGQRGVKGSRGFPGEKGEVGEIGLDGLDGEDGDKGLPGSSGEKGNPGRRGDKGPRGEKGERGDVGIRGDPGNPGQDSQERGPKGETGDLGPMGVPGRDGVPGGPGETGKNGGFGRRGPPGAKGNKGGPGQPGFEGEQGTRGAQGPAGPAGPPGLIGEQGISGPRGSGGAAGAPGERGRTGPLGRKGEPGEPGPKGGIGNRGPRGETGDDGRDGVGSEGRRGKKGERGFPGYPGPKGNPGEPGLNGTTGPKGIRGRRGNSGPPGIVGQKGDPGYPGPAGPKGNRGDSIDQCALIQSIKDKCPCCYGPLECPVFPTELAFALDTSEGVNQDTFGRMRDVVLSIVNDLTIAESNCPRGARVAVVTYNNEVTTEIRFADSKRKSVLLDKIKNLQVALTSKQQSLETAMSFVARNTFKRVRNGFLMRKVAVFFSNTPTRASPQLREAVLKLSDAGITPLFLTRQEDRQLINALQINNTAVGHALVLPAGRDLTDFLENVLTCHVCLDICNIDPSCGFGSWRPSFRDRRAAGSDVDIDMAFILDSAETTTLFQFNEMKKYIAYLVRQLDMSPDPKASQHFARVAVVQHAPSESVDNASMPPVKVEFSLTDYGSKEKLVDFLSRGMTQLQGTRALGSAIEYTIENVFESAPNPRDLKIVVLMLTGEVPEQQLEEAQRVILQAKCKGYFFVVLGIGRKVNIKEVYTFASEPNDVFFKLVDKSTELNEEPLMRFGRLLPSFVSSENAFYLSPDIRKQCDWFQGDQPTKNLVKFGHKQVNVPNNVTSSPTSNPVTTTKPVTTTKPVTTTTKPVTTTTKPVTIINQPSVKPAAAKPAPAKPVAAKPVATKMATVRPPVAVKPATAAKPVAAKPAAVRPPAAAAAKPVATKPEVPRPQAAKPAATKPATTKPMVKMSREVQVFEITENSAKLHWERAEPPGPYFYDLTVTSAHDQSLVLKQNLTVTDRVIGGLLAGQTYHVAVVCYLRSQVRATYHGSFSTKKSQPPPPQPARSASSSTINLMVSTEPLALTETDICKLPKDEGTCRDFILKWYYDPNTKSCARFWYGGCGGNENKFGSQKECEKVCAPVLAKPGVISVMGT
# UniProt Q8WXC6: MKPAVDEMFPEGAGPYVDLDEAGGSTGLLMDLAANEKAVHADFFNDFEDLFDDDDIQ
# UniProt Q14061: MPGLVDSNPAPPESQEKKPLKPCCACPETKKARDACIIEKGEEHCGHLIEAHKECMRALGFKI
# UniProt Q9BU20: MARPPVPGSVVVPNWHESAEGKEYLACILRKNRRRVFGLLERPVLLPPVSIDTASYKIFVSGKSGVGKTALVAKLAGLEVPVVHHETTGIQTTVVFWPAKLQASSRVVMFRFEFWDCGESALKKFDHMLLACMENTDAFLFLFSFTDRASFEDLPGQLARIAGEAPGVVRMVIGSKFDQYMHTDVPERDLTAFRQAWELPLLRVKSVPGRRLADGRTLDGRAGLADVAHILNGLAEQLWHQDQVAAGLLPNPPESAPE
# UniProt Q8N4Y2: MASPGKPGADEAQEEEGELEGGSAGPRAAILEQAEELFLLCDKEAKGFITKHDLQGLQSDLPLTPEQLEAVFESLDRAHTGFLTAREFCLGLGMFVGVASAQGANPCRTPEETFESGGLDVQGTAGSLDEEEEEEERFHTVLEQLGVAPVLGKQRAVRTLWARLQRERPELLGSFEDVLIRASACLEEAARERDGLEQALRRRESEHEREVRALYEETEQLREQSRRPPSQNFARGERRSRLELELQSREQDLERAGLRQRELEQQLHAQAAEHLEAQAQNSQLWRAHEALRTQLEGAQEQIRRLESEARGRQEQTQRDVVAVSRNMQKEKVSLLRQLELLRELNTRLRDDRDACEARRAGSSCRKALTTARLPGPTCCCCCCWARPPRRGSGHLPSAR
# Some of the results follow.
# Compound: NCC(=O)Nc1ccc(-n2nc(C(F)(F)F)cc2-c2ccc3c(ccc4ccccc43)c2)cc1
# Assay: log2 fold change, soluble protein after heating vs DMSO (PISA); higher = thermal stabilisation; K562 lysate, 10 uM; active = over 0.2 and 3.5 SD of the protein, either way, in both replicates (recomputed)
# Summary of the method: (§1)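 To prepare the extract, K562 pellets were dounce-homogenised in PBS pH 7.4 with 1 mM MgCl2, giving crude material at 1 mg/mL protein. This was treated with 10 μM compound for 30 min, then heated in aliquots for 3 min over 48°C-58°C before pooling and addition of NP-40 to 0.5% at 4°C. Centrifugation at 21,000xg for 90 min left soluble protein in the supernatant, which TMTpro 16plex LC-MS/MS quantified with equalised channel sums. Results are log-two fold changes in thermal stability compared with solvent controls, from duplicates.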
row,Target,log2 fold change
1,CNK3/IPCEF1 isoform 2 (UniProt G9CGD6),inactive: -0.02
2,COLEC11 isoform 10 (UniProt Q9BWP8),inactive: -0.089
3,CRABP2 (UniProt P29373),inactive: 0.169
4,COA7 (UniProt Q96BR5),inactive: 0.003
5,COX7B (UniProt P24311),inactive: -0.043
6,CORO1C isoform 3 (UniProt Q9ULV4),inactive: 0.003
7,COMMD4 (UniProt Q9H0A8),inactive: -0.005
8,CPEB4 (UniProt Q17RY0),inactive: 0.05
9,CORO2A (UniProt Q92828),inactive: -0.059
10,COQ6 (UniProt Q9Y2Z9),inactive: -0.003
11,COPS3 isoform 2 (UniProt Q9UNS2),inactive: -0.123
12,COQ3 (UniProt Q9NZJ6),inactive: -0.055
13,CNDP2 (UniProt Q96KP4),inactive: 0.023
14,COG2 (UniProt Q14746),inactive: -0.031
15,COQ8A (UniProt Q8NI60),inactive: -0.043
16,CPLX1 (UniProt O14810),inactive: 0
17,CNNM1 (UniProt Q9NRU3),inactive: 0.113
18,CNOT10 (UniProt Q9H9A5),inactive: -0.058
19,COMTD1 (UniProt Q86VU5),inactive: -0.001

# Compound: O=C(CCCCCCC(=O)Nc1ccccc1)NO [vorinostat]
# Assay: as above
# Summary of the method: as §1
row,Target,log2 fold change
1,CNTROB isoform 2 (UniProt Q8N137),inactive: -0.012
2,COL6A3 (UniProt P12111),inactive: 0.273
3,COMMD3-BMI1 (UniProt R4GMX3),inactive: -0.171
4,CNK3/IPCEF1 isoform 2 (UniProt G9CGD6),inactive: -0.279
5,COLEC11 isoform 10 (UniProt Q9BWP8),inactive: 0.121
6,CRABP2 (UniProt P29373),inactive: 0.18
7,COL1A1 (UniProt P02452),inactive: 1.5
8,COA7 (UniProt Q96BR5),inactive: 0.079
9,COPS9 (UniProt Q8WXC6),inactive: 0.341
10,CNOT2 (UniProt F8VRS8),inactive: -0.056
11,COX7B (UniProt P24311),inactive: 0.081
12,COX17 (UniProt Q14061),inactive: 0.048
13,CORO1C isoform 3 (UniProt Q9ULV4),inactive: -0.099
14,CPLANE2 (UniProt Q9BU20),inactive: -0.037
15,COMMD4 (UniProt Q9H0A8),inactive: -0.17
16,CPEB4 (UniProt Q17RY0),inactive: -0.269
17,CORO2A (UniProt Q92828),inactive: -0.049

row,Target,log2 fold change
1,COQ6 (UniProt Q9Y2Z9),inactive: 0.2
2,CRACR2B (UniProt Q8N4Y2),inactive: -0.063
3,CPNE2 (UniProt Q96FN4),inactive: 0.043
4,COQ8B (UniProt Q96D53),inactive: 0.141
5,COP1 (UniProt Q8NHY2),inactive: 0.012
6,COX14 (UniProt Q96I36),inactive: -0.185
7,COQ3 (UniProt Q9NZJ6),inactive: 0.19
8,CNDP2 (UniProt Q96KP4),inactive: 0.133
9,COG2 (UniProt Q14746),active: -0.315
10,COMMD6 isoform 2 (UniProt Q7Z4G1),inactive: -0.132
11,CPEB3 (UniProt Q8NE35),inactive: -0.06
12,COQ8A (UniProt Q8NI60),inactive: -0.042
13,CNNM1 (UniProt Q9NRU3),inactive: 0.135
14,CPA4 (UniProt Q9UI42),inactive: 0.274
15,CNOT10 (UniProt Q9H9A5),inactive: -0.147
16,COMTD1 (UniProt Q86VU5),inactive: -0.349
